Measured values: PubChem BioAssay AID720551 (National Center for Advancing Translational Sciences (NCATS), 2013)
About 1,300 (0.38%) of roughly 340,000 compounds were called active. The inconclusive results got no clear call from the source; some entries with a clear call stand among them for comparison.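 How the source made its calls: active means maximum activity change below -70%; inconclusive means maximum activity change between -70% and -50%; inactive means maximum activity change above -50%.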

Chains of the proteins cited; added tags and fusions are not shown. Lines headed by an entry give the natural chain unless they say otherwise; changes in a name come on top.
UniProt Q12809: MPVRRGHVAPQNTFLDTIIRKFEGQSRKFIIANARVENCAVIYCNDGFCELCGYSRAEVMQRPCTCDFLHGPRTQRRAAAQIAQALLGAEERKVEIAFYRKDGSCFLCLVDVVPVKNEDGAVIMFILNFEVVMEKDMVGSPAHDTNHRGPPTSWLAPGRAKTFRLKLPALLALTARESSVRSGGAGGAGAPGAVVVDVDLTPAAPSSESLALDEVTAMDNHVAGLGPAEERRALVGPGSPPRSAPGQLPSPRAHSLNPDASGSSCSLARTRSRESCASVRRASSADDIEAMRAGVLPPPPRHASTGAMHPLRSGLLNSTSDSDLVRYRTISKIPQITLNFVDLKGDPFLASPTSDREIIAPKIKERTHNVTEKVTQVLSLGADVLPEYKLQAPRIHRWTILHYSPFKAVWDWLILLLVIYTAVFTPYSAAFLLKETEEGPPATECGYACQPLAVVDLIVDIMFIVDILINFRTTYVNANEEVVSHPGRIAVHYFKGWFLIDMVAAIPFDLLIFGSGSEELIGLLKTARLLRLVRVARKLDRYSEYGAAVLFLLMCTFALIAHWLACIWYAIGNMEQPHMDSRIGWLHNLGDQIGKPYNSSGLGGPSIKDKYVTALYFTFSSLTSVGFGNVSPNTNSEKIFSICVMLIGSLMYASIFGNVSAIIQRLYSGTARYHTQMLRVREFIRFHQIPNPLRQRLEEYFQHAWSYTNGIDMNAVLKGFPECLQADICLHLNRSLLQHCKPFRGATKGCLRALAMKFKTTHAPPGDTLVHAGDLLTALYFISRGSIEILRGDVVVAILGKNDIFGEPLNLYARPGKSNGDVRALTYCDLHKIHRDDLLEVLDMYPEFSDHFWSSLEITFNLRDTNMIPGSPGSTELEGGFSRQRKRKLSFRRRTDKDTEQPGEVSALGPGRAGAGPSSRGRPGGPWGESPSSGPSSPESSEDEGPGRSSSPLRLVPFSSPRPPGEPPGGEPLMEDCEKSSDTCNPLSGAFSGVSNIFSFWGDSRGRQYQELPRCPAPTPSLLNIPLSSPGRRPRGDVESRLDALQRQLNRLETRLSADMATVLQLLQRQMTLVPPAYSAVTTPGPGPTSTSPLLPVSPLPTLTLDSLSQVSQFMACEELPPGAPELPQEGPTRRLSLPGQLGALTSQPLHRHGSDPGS

Molecular target: Voltage-gated inwardly rectifying potassium channel KCNH2 (Homo sapiens) (UniProt Q12809)
Test: qHTS for Inhibitors of KCHN2 3.1: Wildtype qHTS
Conditions: U2OS, BacMam KCNH2, thallium flux FluxOr; at 1.84 µM; hits give low values
Text: Many antipsychotic drugs that inhibit the neurotransmitter dopamine also bind to hERG1 channel which might help explain their antipsychotic activity but also produces cardiac side effects. The discovery of the novel KCNH2 3.1 isoform offers a potential new target for the development of antipsychotic drugs without cardiac side effects. This proposal will use a high throughput thallium flux assay developed for KCNH2 to screen compounds that modulate the activity of KCNH2 3.1. The wild type KCNH2 channel will also be screened in parallel to help define the selective modulators of this KCNH2 3.1 potassium channel. The resulting compounds will be validated in electrophysiology experiments. The availability of animal models will allow future testing in vivo for effects on memory and other aspects of animal physiology linked with psychosis. NIH Chemical Genomics Center [NCGC] NIH Molecular Libraries Probe Centers Network [MLPCN] MLPCN Grant: MH096539 Assay Submitter (PI): James Barrow, Johns Hopkins University, Lieber Institute for Brain Development
U2OS cells were resuspended in cell media containing 10% fetal calf serum (FCS) at a concentration of 2 million cells / mL. The solution was treated with the Wild-type virus at 2.03 x 10^8 / mL and allowed to incubate at room temperature in the dark. After 4 hours of incubation, DMEM + 10% fetal bovine serum (FBS) was added to the cell solution. Three microliter was then dispensed into a 1536 tissue culture treated black assay plates which were incubated overnight at 37 C. Two microliter of loading buffer (HBSS + HEPES + Red40 dye quencher + FluxOr dye) was added and the assay plates were incubated for 45 min at room temperature in the dark. […] A stimulation buffer was added to the plate and the second kinetic read (2 min) was obtained. The rate constant was calculated from the kinetic reads and normalized to the positive and negative DMSO controls.
On the % scale 0 is the no-effect control and ±100 the full control effect.

| SMILES | activity change |
| --- | --- |
| CCc1ccc(CN2CCN(Cc3ccc(SC)cc3)CC2)cc1 | inconclusive: -58.6% |
| O=C(NCC1=C(c2cccc3ccccc23)C[C@@H]2CC[C@H]1N2Cc1ccco1)c1cccs1 | inconclusive: -60.7% |
| Clc1ccc2c(c1)C(c1ccccc1Cl)=NCc1nnc(N3CCN(CCSc4ccccc4)CC3)n1-2 | active: -153% |
| C=CCNC(=S)N1Cc2ccccc2-n2nncc2C1 | active: -120% |
| Cc1ccccc1-n1c(/C=C/c2ccccn2)nc2ccccc2c1=O | inactive: 2.69% |
| Fc1ccc(C(OCCN2CCCC2)c2ccc(Br)cc2)cc1 (stereo not given) | inconclusive: -51.9% |
| CS(=O)(=O)c1ccc(C2=C(CNC(=O)c3cccs3)[C@H]3CC[C@@H](C2)N3Cc2ccccc2)cc1 | inconclusive: -59.6% |
| N#Cc1ccc(N2CCNCC2)c(F)c1 | inconclusive: -64.7% |
| O=C1CC=C2C3CC4N(CCC45c4cc(O)c(O)cc4N1C25)CC3=CCBr (stereo not given) | inconclusive: -52.3% |
| C#C[C@]1(O)CC[C@H]2[C@@H]3CCC4=Cc5nc6nc7ccccc7n6cc5C[C@]4(C)[C@H]3CC[C@@]21C | inconclusive: -54.8% |
| CCOC(=O)C1(CCOc2ccccc2)CCN(Cc2ccc(C)s2)CC1 | active: -94.4% |
| COc1ccccc1CN1CCN(C(=O)COc2ccc3ccccc3c2)CC1 | inconclusive: -55.3% |
| Cc1ccc(S(=O)(=O)c2nc(-c3ccccc3Cl)oc2N(C)C2CCN(C)CC2)cc1 | inconclusive: -67.5% |
| CS(=O)(=O)c1ccc(C2=C(CNC(=O)c3ccncc3)[C@H]3CC[C@@H](C2)N3CCOc2ccccc2)cc1 | inconclusive: -62.3% |
| OC(c1cccc(Cl)c1)(c1cccc(Cl)c1)C1CN2CCC1CC2 (stereo not given) | inconclusive: -54.4% |
| CCC1CN1P1(=O)OCC(C)([N+](=O)[O-])CO1 (stereo not given) | inconclusive: -67% |
| O=[N+]([O-])c1ccc(NCc2ccccc2)c2nonc12 | inconclusive: -51.9% |
| CCN(CC)c1ccc(/C=N/c2sc3c(c2C#N)C2CCN3CC2)c(O)c1 | inconclusive: -54.9% |
| CN1C2C=C(N(C(=O)c3ccc(Cl)cc3)c3ccccc3)CC1CC2 (stereo not given) | inconclusive: -52.8% |
| O=[N+]([O-])c1oc2ccc3ccccc3c2c1CCO | inconclusive: -52.8% |
| CCOC(=O)COc1ccc2c(c1)c(C(C)=O)c(C)n2Cc1ccccc1 | inactive: 3.18% |
| COc1ccc(CN2C(=O)NC(=O)/C(=C\c3ccco3)C2=O)cc1 | inconclusive: -61.8% |
| Cn1cc(C(=O)N2CCC3(CC2)OCCO3)c2c3ccccc3n(C)c2c1=O | inactive: 1.33% |
| Cc1ccc(Cn2nnnc2CN2CCC(n3nnc4cc(C(F)(F)F)ccc43)CC2)cc1 | inconclusive: -52.3% |
| CCOc1cccc(=NC2CCCCC2)c2c(C)n(C)c(C)c12 | inactive: -5.37% |

3 compounds out of the list, sorted by molecular weight, rising.

| SMILES | activity change |
| --- | --- |
| CCOc1cccc(=NC2CCCCC2)c2c(C)n(C)c(C)c12 | inactive: -5.37% |
| CCc1ccc(CN2CCN(Cc3ccc(SC)cc3)CC2)cc1 | inconclusive: -58.6% |
| CCN(CC)c1ccc(/C=N/c2sc3c(c2C#N)C2CCN3CC2)c(O)c1 | inconclusive: -54.9% |
